Test results published in US20250179160A1.
Positions count from the first letter of the chain named. Results are given in words; binding and its absence hold for the method and conditions named. Some binding calls cover weakened binding; strength is not graded here.

By UniProt entry, the sequences of proteins in these tests, tags left out. Where a name states a change or a piece, a line headed by the entry shows the natural chain unless it says otherwise.
UniProt P00746: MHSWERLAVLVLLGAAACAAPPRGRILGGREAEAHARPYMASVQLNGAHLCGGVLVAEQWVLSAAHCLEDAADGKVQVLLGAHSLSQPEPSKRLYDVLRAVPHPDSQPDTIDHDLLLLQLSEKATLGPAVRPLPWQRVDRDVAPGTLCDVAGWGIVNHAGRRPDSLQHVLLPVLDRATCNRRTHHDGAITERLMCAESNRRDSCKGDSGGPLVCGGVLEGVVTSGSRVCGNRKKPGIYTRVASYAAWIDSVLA

B1: 3C5, hybridoma supernatant (antibody, V domains shown)
VH: EVKLVESGGGLVQPGGSLKLSCATSGFTFSDYGMAWVRQAPGKGPEWVAFISNLAYSFYYVDIVMGRFTISRENAKNTLYLEMSSLRSEDTAMYYCARVGLYGNFFMDYWGQGTSVTVSS
VL: DIQMNQSPSSLSASLGDTITITCHASQNINVWLSWYQQKPGNIPELLIYKASNLHTGVPSRFSGNRSGTSFTLTISSLQPEDIGTYFCQQGQSYPLTFGAGTKLELRR
B2: 30H2, hybridoma supernatant (antibody, V domains shown)
VH: B1 VH
VL: B1 VL with L106I, R107K
B3: 12H10, hybridoma supernatant (antibody, V domains shown)
VH: EVQLVESGGGLVQPKGSLKLSCAASGFSFNTYAMNWVRQAPGKGLEWVARIRSKSNNYATYYADSVKDRFTISRDDSESMLYLQMNNLKTEDTAMYYCVRHGYYWYFDVWGTGTTVTVSS
VL: DVLMTQTPLSLPVSLGDQASISCRSSQSIVHSDGNTYLEWYLQKPGQSPKLLIYRVSNRFSGVPDRFSGSGSGTDFTLKISRVEAEDLGVYYCFQGSHVPYTFGGGTKLEIKR
B4: 7H2, hybridoma supernatant (antibody, V domains shown)
VH: B3 VH with L4V, Q13R, Y82S, H101Q
VL: B3 VL with D33N, R55T, S68R, Y101W

Biological target: recombinant human Pro-Factor D, Strep tagged (human) (UniProt P00746)
Experiment: ELISA with hybridoma supernatant; pro-Factor D-Strep captured by AF1824

binding, binds:
B1
B2
B3
B4
